Laboratory results: doi:10.1101/2024.11.13.623339
No constants are given. Whether binding was seen depends on the method and setting. Binding seen in cells or lysates may run through a third protein. Some binding calls cover weakened binding; strength is not graded here. Where a sequence is shown, tags or fusion partners need not be part of it.

T1: ATP9A, tagged at the C-terminus with HA or FLAG (UniProt O75110)
T1 sequence: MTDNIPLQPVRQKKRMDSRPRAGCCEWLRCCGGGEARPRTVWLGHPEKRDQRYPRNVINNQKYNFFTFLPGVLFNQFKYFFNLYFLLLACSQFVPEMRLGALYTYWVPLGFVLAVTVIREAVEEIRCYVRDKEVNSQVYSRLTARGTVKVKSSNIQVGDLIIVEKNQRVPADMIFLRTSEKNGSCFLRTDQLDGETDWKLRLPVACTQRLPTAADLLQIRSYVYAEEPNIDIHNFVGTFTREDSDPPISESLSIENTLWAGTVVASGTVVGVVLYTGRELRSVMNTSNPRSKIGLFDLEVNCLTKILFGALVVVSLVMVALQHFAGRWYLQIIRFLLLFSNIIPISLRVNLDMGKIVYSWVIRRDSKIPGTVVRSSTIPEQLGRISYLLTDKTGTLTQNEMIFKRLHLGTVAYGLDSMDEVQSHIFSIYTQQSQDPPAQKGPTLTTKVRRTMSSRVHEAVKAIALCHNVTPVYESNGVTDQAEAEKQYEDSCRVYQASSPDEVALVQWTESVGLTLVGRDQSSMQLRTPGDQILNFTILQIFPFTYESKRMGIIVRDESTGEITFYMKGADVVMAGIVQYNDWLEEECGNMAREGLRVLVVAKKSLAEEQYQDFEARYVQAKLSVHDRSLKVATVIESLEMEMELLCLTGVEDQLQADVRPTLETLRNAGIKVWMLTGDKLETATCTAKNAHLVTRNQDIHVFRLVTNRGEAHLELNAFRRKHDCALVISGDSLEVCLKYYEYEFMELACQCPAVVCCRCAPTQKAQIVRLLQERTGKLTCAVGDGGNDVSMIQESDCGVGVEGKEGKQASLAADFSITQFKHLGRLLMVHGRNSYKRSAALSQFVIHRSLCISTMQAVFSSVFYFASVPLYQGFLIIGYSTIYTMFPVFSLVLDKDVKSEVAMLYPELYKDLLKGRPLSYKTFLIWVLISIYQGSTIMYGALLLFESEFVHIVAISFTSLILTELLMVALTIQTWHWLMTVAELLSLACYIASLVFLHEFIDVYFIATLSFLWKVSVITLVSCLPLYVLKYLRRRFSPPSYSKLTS

T2: ATP9B, tagged at the C-terminus with HA or FLAG (UniProt O43861)
T2 sequence: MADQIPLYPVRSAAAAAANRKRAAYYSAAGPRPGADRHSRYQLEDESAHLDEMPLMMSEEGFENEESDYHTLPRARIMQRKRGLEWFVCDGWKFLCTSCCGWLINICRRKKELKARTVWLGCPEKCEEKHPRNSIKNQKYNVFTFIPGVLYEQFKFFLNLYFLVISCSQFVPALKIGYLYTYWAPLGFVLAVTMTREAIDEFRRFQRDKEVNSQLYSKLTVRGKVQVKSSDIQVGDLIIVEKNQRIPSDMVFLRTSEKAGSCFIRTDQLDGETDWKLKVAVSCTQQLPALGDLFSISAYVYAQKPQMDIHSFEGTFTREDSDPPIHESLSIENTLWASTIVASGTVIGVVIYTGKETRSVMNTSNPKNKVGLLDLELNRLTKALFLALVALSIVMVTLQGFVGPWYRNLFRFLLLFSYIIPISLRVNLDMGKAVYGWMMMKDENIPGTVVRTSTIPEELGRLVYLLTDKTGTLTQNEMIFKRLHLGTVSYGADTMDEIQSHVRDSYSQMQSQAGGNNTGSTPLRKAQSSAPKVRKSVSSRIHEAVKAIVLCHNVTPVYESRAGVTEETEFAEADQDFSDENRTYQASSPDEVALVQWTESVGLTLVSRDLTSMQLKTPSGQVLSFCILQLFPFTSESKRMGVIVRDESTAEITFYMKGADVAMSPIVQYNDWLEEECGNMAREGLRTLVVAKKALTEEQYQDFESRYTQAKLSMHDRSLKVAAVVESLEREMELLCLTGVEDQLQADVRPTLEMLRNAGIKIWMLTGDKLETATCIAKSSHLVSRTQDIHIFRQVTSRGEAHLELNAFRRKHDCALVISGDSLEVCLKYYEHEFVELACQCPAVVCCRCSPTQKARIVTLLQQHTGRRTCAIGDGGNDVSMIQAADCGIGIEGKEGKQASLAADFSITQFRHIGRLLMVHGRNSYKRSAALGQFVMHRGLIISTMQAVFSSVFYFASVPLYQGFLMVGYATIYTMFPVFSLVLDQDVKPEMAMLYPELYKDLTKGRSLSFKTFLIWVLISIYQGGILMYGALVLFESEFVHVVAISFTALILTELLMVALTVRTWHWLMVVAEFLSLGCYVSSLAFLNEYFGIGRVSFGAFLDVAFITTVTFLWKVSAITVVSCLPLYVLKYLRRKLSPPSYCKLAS


Experiments:
[1] = target: T1, ATP9A, tagged at the C-terminus with HA or FLAG; assay: co-IP
[2] = target: T2, ATP9B, tagged at the C-terminus with HA or FLAG; assay: co-IP

binding [1]	binding [2]	Binder
no binding	no binding	FLAG-tagged ATP11C (protein, UniProt Q8NB49 1-1132) MQMVPSLPPASECAGEEKRVGTRTVFVGNHPVSETEAYIAQRFCDNRIVSSKYTLWNFLPKNLFEQFRRIANFYFLIIFLVQVTVDTPTSPVTSGLPLFFVITVTAIKQGYEDCLRHRADNEVNKSTVYIIENAKRVRKESEKIKVGDVVEVQADETFPCDLILLSSCTTDGTCYVTTASLDGESNCKTHYAVRDTIALCTAESIDTLRAAIECEQPQPDLYKFVGRINIYSNSLEAVARSLGPENLLLKGATLKNTEKIYGVAVYTGMETKMALNYQGKSQKRSAVEKSINAFLIVYLFILLTKAAVCTTLKYVWQSTPYNDEPWYNQKTQKERETLKVLKMFTDFLSFMVLFNFIIPVSMYVTVEMQKFLGSFFISWDKDFYDEEINEGALVNTSDLNEELGQVDYVFTDKTGTLTENSMEFIECCIDGHKYKGVTQEVDGLSQTDGTLTYFDKVDKNREELFLRALCLCHTVEIKTNDAVDGATESAELTYISSSPDEIALVKGAKRYGFTFLGNRNGYMRVENQRKEIEEYELLHTLNFDAVRRRMSVIVKTQEGDILLFCKGADSAVFPRVQNHEIELTKVHVERNAMDGYRTLCVAFKEIAPDDYERINRQLIEAKMALQDREEKMEKVFDDIETNMNLIGATAVEDKLQDQAAETIEALHAAGLKVWVLTGDKMETAKSTCYACRLFQTNTELLELTTKTIEESERKEDRLHELLIEYRKKLLHEFPKSTRSFKKAWTEHQEYGLIIDGSTLSLILNSSQDSSSNNYKSIFLQICMKCTAVLCCRMAPLQKAQIVRMVKNLKGSPITLSIGDGANDVSMILESHVGIGIKGKEGRQAARNSDYSVPKFKHLKKLLLAHGHLYYVRIAHLVQYFFYKNLCFILPQFLYQFFCGFSQQPLYDAAYLTMYNICFTSLPILAYSLLEQHINIDTLTSDPRLYMKISGNAMLQLGPFLYWTFLAAFEGTVFFFGTYFLFQTASLEENGKVYGNWTFGTIVFTVLVFTVTLKLALDTRFWTWINHFVIWGSLAFYVFFSFFWGGIIWPFLKQQRMYFVFAQMLSSVSTWLAIILLIFISLFPEILLIVLKNVRRRSARRNLSCRRASDSLSARPSVRPLLLRTFSDESNVL
binds	binds	ATP9A(E195Q), FLAG-tagged ATPase-deficient mutant (protein, UniProt O75110 1-1047) MTDNIPLQPVRQKKRMDSRPRAGCCEWLRCCGGGEARPRTVWLGHPEKRDQRYPRNVINNQKYNFFTFLPGVLFNQFKYFFNLYFLLLACSQFVPEMRLGALYTYWVPLGFVLAVTVIREAVEEIRCYVRDKEVNSQVYSRLTARGTVKVKSSNIQVGDLIIVEKNQRVPADMIFLRTSEKNGSCFLRTDQLDGQTDWKLRLPVACTQRLPTAADLLQIRSYVYAEEPNIDIHNFVGTFTREDSDPPISESLSIENTLWAGTVVASGTVVGVVLYTGRELRSVMNTSNPRSKIGLFDLEVNCLTKILFGALVVVSLVMVALQHFAGRWYLQIIRFLLLFSNIIPISLRVNLDMGKIVYSWVIRRDSKIPGTVVRSSTIPEQLGRISYLLTDKTGTLTQNEMIFKRLHLGTVAYGLDSMDEVQSHIFSIYTQQSQDPPAQKGPTLTTKVRRTMSSRVHEAVKAIALCHNVTPVYESNGVTDQAEAEKQYEDSCRVYQASSPDEVALVQWTESVGLTLVGRDQSSMQLRTPGDQILNFTILQIFPFTYESKRMGIIVRDESTGEITFYMKGADVVMAGIVQYNDWLEEECGNMAREGLRVLVVAKKSLAEEQYQDFEARYVQAKLSVHDRSLKVATVIESLEMEMELLCLTGVEDQLQADVRPTLETLRNAGIKVWMLTGDKLETATCTAKNAHLVTRNQDIHVFRLVTNRGEAHLELNAFRRKHDCALVISGDSLEVCLKYYEYEFMELACQCPAVVCCRCAPTQKAQIVRLLQERTGKLTCAVGDGGNDVSMIQESDCGVGVEGKEGKQASLAADFSITQFKHLGRLLMVHGRNSYKRSAALSQFVIHRSLCISTMQAVFSSVFYFASVPLYQGFLIIGYSTIYTMFPVFSLVLDKDVKSEVAMLYPELYKDLLKGRPLSYKTFLIWVLISIYQGSTIMYGALLLFESEFVHIVAISFTSLILTELLMVALTIQTWHWLMTVAELLSLACYIASLVFLHEFIDVYFIATLSFLWKVSVITLVSCLPLYVLKYLRRRFSPPSYSKLTS
binds	binds	ATP9B(E272Q), FLAG-tagged ATPase-deficient mutant (protein, UniProt O43861 1-1147) MADQIPLYPVRSAAAAAANRKRAAYYSAAGPRPGADRHSRYQLEDESAHLDEMPLMMSEEGFENEESDYHTLPRARIMQRKRGLEWFVCDGWKFLCTSCCGWLINICRRKKELKARTVWLGCPEKCEEKHPRNSIKNQKYNVFTFIPGVLYEQFKFFLNLYFLVISCSQFVPALKIGYLYTYWAPLGFVLAVTMTREAIDEFRRFQRDKEVNSQLYSKLTVRGKVQVKSSDIQVGDLIIVEKNQRIPSDMVFLRTSEKAGSCFIRTDQLDGQTDWKLKVAVSCTQQLPALGDLFSISAYVYAQKPQMDIHSFEGTFTREDSDPPIHESLSIENTLWASTIVASGTVIGVVIYTGKETRSVMNTSNPKNKVGLLDLELNRLTKALFLALVALSIVMVTLQGFVGPWYRNLFRFLLLFSYIIPISLRVNLDMGKAVYGWMMMKDENIPGTVVRTSTIPEELGRLVYLLTDKTGTLTQNEMIFKRLHLGTVSYGADTMDEIQSHVRDSYSQMQSQAGGNNTGSTPLRKAQSSAPKVRKSVSSRIHEAVKAIVLCHNVTPVYESRAGVTEETEFAEADQDFSDENRTYQASSPDEVALVQWTESVGLTLVSRDLTSMQLKTPSGQVLSFCILQLFPFTSESKRMGVIVRDESTAEITFYMKGADVAMSPIVQYNDWLEEECGNMAREGLRTLVVAKKALTEEQYQDFESRYTQAKLSMHDRSLKVAAVVESLEREMELLCLTGVEDQLQADVRPTLEMLRNAGIKIWMLTGDKLETATCIAKSSHLVSRTQDIHIFRQVTSRGEAHLELNAFRRKHDCALVISGDSLEVCLKYYEHEFVELACQCPAVVCCRCSPTQKARIVTLLQQHTGRRTCAIGDGGNDVSMIQAADCGIGIEGKEGKQASLAADFSITQFRHIGRLLMVHGRNSYKRSAALGQFVMHRGLIISTMQAVFSSVFYFASVPLYQGFLMVGYATIYTMFPVFSLVLDQDVKPEMAMLYPELYKDLTKGRSLSFKTFLIWVLISIYQGGILMYGALVLFESEFVHVVAISFTALILTELLMVALTVRTWHWLMVVAEFLSLGCYVSSLAFLNEYFGIGRVSFGAFLDVAFITTVTFLWKVSAITVVSCLPLYVLKYLRRKLSPPSYCKLAS
